Assay [1] deals with T1, full-length fibrillarin (in the recombinant RNP complex) (human) (UniProt P22087).
T1 sequence: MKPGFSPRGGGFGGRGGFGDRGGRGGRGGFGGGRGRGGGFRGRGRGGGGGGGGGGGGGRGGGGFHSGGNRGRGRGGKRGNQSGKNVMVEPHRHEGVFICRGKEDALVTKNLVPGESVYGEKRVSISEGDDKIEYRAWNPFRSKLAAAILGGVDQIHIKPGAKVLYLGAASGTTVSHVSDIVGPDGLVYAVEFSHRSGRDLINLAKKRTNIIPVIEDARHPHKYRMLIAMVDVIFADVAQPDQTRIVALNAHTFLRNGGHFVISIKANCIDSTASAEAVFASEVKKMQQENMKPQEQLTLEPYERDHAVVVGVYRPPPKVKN
Nature of the assay: co-purification by IMAC; subunits co-expressed in E. coli BL21 DE3 from one plasmid; IMAC (nickel beads) under native conditions, 4 °C; lysis buffer 50 mM Tris-HCl pH 8, 300 mM NaCl, 20 mM imidazole, 10% glycerol, 0.1% Triton X-100; seen on SDS-PAGE.

Sequences of proteins named here, by UniProt entry; tags and fusion partners are left off.
UniProt O00567: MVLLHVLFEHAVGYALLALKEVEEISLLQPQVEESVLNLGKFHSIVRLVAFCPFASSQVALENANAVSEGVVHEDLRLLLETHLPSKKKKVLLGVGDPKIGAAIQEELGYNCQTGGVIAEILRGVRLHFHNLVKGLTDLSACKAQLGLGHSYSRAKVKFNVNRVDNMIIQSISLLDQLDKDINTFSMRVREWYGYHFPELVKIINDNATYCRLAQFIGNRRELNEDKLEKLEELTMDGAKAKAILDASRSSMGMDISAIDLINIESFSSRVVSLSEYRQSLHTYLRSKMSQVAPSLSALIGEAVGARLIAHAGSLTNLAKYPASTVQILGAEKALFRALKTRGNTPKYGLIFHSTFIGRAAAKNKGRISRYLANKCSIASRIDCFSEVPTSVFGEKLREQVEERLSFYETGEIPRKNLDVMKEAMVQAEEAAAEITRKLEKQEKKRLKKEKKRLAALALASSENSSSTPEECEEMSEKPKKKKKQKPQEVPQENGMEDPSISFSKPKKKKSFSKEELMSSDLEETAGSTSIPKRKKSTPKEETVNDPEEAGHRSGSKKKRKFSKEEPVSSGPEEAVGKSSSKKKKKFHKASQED

Assay [2] concerns the target T2, truncated fibrillarin (from amino acid 82 to 321), GAR domain absent (in the RNP ΔGAR complex) (human) (UniProt P22087).
T2 sequence: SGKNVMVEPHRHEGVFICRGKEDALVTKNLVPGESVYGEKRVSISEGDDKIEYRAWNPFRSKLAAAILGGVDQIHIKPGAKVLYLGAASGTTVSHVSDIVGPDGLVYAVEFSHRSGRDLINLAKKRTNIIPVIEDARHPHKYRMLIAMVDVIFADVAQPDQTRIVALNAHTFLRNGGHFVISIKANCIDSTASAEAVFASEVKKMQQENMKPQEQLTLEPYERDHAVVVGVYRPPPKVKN
Described as above.

Here are results for three molecules from article PMC7290794.

These are yes or no findings as the source states them, for the method shown. Some results given as binding are weak or reduced against the parent protein; the word gives no strength.

As to Nop56 (from UniProt O00567 1-594), the binding entry in assay [1] and in assay [2] was “binds” throughout.

B1: Nop58 (protein, UniProt Q9Y2X3 1-529)
chain: MLVLFETSVGYAIFKVLNEKKLQEVDSLWKEFETPEKANKIVKLKHFEKFQDTAEALAAFTALMEGKINKQLKKVLKKIVKEAHEPLAVADAKLGGVIKEKLNLSCIHSPVVNELMRGIRSQMDGLIPGVEPREMAAMCLGLAHSLSRYRLKFSADKVDTMIVQAISLLDDLDKELNNYIMRCREWYGWHFPELGKIISDNLTYCKCLQKVGDRKNYASAKLSELLPEEVEAEVKAAAEISMGTEVSEEDICNILHLCTQVIEISEYRTQLYEYLQNRMMAIAPNVTVMVGELVGARLIAHAGSLLNLAKHAASTVQILGAEKALFRALKSRRDTPKYGLIYHASLVGQTSPKHKGKISRMLAAKTVLAIRYDAFGEDSSSAMGVENRAKLEARLRTLEDRGIRKISGTGKALAKTEKYEHKSEVKTYDPSGDSTLPTCSKKRKIEQVDKEDEITEKKAKKAKIKVKVEEEEEEKVAEEEETSVKKKKKRGKKKHIKEEPLSEEEPCTSTAIASPEKKKKKKKKRENED
Regarding B1, the binding entry in assay [1] and in assay [2] was “binds” in each case.

B2: 15.5K (protein, UniProt P55769 1-128)
chain: MTEADVNPKAYPLADAHLTKKLLDLVQQSCNYKQLRKGANEATKTLNRGISEFIVMAADAEPLEIILHLPLLCEDKNVPYVFVRSKQALGRACGVSRPVIACSVTIKEGSQLKQQIQSIQQSIERLLV
Consider B2, for which the binding entry in assay [1] and in assay [2] was “binds” in each case.
